Results on 3 molecules are retold here after PMC3706368.

The target in experiment [1] is HCV NS3 protein (full-length, from a.a. 1 to 631) (hepatitis C virus (HCV-H isolate)). The experiment can be described thus: two-hybrid; library screen in yeast (Clontech system); NS3 as bait against a human fetal liver cDNA library HL4029AH; 1x10^6 transformants.
Experiment [2] has as its target HCV NS3 protease domain (from a.a. 1 to a.a. 208) (hepatitis C virus (HCV-H isolate)). The experiment can be described thus: two-hybrid; direct test of defined constructs in yeast (deletion mapping); growth on YEPD without tryptophan, leucine and histidine.

No constants are given. Whether binding was seen depends on the method and setting. Binding calls can cover weak binding; strength is not graded here.

B1: truncated cdN protein without its N-terminal 44 amino acids (library cDNA clone) (domain or fragment, UniProt Q8TCD5 45-201)
chain: LAREQYRALRPDLADKVASVYEAPGFFLDLEPIPGALDAVREMNDLPDTQVFICTSPLLKYHHCVGEKYRWVEQHLGPQFVERIILTRDKTVVLGDLLIDDKDTVRGQEETPSWEHILFTCCHNRHLVLPPTRRRLLSWSDNWREILDSKRGAAQRE
Consider B1, for which the binding entry in experiment [1] is “binds”.

B2: a.a. 846 to 1008 of ELKS-δ protein (domain or fragment, UniProt Q8IUD2-3 846-1008)
chain: VEELLMAMEKVKQELESMKAKLSSTQQSLAEKETHLTNLRAERRKHLEEVLEMKQEALLAAISEKDANIALLELSSSKKKTQEEVAALKREKDRLVQQLKQQTQNRMKLMADNYEDDHFKSSHSNQTNHKPSPDQIIQPLLELDQNRSKLKLYIGHLTTLCHD
On to B2, for which, in experiment [2], the binding result was “binds”.
On the same count and under the same terms, then EAPGFFLDLEPIPGALDAVREMNDLPDTQVFICTSPLLKYHHCV (domain or fragment, UniProt Q8TCD5 66-109) [cdN protein from a.a. 66 to a.a. 109], with “binds”.
